Data taken from publication PMC4490376.
Results are given in words; binding and its absence hold for the method and conditions named. For some assays here: In cells and extracts the contact can be indirect. Some entries that bind do so weakly or less than the wild type. Tags and fused reporters may be left off the sequences shown.

B1: ectonucleotide pyrophosphatase/phosphodiesterase family member 1 (ENPP1), endogenous (protein, UniProt P22413 1-925)
chain: MERDGCAGGGSRGGEGGRAPREGPAGNGRDRGRSHAAEAPGDPQAAASLLAPMDVGEEPLEKAARARTAKDPNTYKVLSLVLSVCVLTTILGCIFGLKPSCAKEVKSCKGRCFERTFGNCRCDAACVELGNCCLDYQETCIEPEHIWTCNKFRCGEKRLTRSLCACSDDCKDKGDCCINYSSVCQGEKSWVEEPCESINEPQCPAGFETPPTLLFSLDGFRAEYLHTWGGLLPVISKLKKCGTYTKNMRPVYPTKTFPNHYSIVTGLYPESHGIIDNKMYDPKMNASFSLKSKEKFNPEWYKGEPIWVTAKYQGLKSGTFFWPGSDVEINGIFPDIYKMYNGSVPFEERILAVLQWLQLPKDERPHFYTLYLEEPDSSGHSYGPVSSEVIKALQRVDGMVGMLMDGLKELNLHRCLNLILISDHGMEQGSCKKYIYLNKYLGDVKNIKVIYGPAARLRPSDVPDKYYSFNYEGIARNLSCREPNQHFKPYLKHFLPKRLHFAKSDRIEPLTFYLDPQWQLALNPSERKYCGSGFHGSDNVFSNMQALFVGYGPGFKHGIEADTFENIEVYNLMCDLLNLTPAPNNGTHGSLNHLLKNPVYTPKHPKEVHPLVQCPFTRNPRDNLGCSCNPSILPIEDFQTQFNLTVAEEKIIKHETLPYGRPRVLQKENTICLLSQHQFMSGYSQDILMPLWTSYTVDRNDSFSTEDFSNCLYQDFRIPLSPVHKCSFYKNNTKVSYGFLSPPQLNKNSSGIYSEALLTTNIVPMYQSFQVIWRYFHDTLLRKYAEERNGVNVVSGPVFDFDYDGRCDSLENLRQKRRVIRNQEILIPTHFFIVLTSCKDTSQTPLHCENLDTLAFILPHRTDNSESCVHGKHDSSWVEELLMLHRARITDVEHITGLSFYQQRKEPVSDILKLKTHLPTFSQED
B2: C-terminally Myc- and Flag-tagged ENPP1 (ENPP1-MF) (protein, UniProt P22413 1-925)
chain: B1 chain

Key:
[1] = biological target: T1, C-terminally HA-tagged ABCG2 (ABCG2-HA), transiently expressed in MCF7-luc derivatives (UniProt Q9UNQ0); assay: proximity ligation; Duolink kit; MCF7-luc anti-NC and MCF7-luc anti-miR-27b cells transfected with pCMV6-ABCG2-HA, 48 h post-transfection; anti-ENPP1 and anti-HA primary antibodies; fluorescence microscopy
T1 sequence: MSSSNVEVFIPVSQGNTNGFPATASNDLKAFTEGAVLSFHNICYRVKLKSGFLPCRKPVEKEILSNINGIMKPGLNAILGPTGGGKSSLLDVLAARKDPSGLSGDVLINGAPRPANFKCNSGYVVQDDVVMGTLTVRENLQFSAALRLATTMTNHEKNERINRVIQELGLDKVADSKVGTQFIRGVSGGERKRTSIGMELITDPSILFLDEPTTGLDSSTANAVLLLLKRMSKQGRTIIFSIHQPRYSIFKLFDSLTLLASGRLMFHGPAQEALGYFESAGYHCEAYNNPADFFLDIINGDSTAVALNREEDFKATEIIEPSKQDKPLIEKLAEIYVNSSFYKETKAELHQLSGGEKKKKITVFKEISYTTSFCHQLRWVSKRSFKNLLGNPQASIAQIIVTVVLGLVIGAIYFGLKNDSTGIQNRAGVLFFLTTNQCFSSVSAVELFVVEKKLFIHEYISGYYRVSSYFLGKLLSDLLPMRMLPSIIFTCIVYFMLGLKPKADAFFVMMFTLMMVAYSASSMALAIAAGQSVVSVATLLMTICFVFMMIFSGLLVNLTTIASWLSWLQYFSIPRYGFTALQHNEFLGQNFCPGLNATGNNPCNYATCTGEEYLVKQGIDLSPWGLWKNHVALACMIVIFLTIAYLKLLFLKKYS

[2] = biological target: T2, C-terminally HA-tagged ABCG2 (ABCG2-HA), made in insect cell extract (UniProt Q9UNQ0); assay: co-IP; in vitro binding assay: affinity-purified ABCG2-HA (insect cell extract) mixed with affinity-purified ENPP1-MF or GFP-F (293T); co-immunoprecipitation with anti-HA or anti-Flag agarose, 4 h at 4 °C, 20 mM Tris-HCl pH 8.0, 150 mM NaCl, 1 mM EDTA, 0.1% NP-40, 10% glycerol, 1 mM DTT; both purified
T2 sequence: T1 sequence

Binder | binding [1] | binding [2]
B1 | binds | –
B2 | – | binds
